Measured values published in publication doi:10.1101/2020.07.15.204800 (bioRxiv, 2020).
Results are given in words; binding and its absence hold for the method and conditions named. In cells and extracts the contact can be indirect. Some binding calls cover weakened binding; strength is not graded here. Tags and fused reporters may be left off the sequences shown.

T1: GFP fusion of WDR41 374-393 (linker) (UniProt Q9HAD4)
T1 sequence: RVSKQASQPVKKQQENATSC

T2: GFP fusion protein containing the WDR41 turn region (361-373)
T2 sequence: PVPTGFFNMWGFG

T3: WDR41-HA G365A (UniProt Q9HAD4)
T3 sequence: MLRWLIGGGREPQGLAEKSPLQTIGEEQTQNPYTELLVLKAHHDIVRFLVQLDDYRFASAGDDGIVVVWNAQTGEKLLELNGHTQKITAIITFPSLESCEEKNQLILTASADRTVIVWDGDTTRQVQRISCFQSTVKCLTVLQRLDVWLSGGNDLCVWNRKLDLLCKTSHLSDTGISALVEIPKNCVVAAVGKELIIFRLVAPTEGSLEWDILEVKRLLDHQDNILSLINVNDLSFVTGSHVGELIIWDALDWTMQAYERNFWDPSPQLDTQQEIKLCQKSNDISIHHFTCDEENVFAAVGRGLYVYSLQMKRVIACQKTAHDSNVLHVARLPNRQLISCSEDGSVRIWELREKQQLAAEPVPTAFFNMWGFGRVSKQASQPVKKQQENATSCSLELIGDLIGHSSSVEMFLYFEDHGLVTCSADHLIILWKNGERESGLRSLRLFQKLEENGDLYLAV

T4: WDR41-HA wild type (UniProt Q9HAD4)
T4 sequence: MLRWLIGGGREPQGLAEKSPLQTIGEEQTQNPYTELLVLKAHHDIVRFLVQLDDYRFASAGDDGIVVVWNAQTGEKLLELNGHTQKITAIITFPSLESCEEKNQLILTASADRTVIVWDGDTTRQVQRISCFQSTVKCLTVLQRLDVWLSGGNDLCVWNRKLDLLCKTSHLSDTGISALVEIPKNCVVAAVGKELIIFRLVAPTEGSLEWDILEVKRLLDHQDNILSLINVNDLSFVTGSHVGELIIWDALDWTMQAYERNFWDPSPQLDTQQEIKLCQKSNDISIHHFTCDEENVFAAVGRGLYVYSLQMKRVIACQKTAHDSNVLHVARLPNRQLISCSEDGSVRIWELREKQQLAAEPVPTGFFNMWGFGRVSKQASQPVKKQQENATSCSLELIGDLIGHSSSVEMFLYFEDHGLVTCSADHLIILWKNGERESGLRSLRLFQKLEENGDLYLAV

T5: WDR41-HA with deletion of the second linker sub-region of the 7CD loop (374-393) (UniProt Q9HAD4)
T5 sequence: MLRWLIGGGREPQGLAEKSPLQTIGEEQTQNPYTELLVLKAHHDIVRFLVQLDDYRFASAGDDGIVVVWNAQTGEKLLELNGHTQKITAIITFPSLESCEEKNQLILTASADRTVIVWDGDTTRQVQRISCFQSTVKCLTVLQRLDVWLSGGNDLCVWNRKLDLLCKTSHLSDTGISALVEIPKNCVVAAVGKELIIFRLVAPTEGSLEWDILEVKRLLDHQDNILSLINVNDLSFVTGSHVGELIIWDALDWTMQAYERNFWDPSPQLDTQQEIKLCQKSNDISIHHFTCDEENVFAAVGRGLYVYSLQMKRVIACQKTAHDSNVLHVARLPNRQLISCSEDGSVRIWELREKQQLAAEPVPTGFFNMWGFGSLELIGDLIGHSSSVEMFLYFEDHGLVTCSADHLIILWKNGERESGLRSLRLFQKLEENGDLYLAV

T6: WDR41-HA with glycine 371 substituted by valine (UniProt Q9HAD4)
T6 sequence: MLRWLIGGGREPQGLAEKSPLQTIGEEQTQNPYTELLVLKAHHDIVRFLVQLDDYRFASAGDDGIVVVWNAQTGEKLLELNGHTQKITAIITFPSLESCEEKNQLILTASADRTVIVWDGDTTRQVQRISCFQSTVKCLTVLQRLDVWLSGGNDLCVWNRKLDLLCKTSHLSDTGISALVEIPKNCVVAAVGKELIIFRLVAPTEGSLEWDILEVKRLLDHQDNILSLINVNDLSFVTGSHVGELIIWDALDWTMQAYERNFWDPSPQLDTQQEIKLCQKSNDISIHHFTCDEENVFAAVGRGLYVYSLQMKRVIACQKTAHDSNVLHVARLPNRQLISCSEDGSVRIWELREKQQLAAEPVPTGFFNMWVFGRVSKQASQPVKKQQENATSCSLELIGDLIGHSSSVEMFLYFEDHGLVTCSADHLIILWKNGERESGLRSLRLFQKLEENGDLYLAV

T7: WDR41-HA with glycine 373 substituted by valine (UniProt Q9HAD4)
T7 sequence: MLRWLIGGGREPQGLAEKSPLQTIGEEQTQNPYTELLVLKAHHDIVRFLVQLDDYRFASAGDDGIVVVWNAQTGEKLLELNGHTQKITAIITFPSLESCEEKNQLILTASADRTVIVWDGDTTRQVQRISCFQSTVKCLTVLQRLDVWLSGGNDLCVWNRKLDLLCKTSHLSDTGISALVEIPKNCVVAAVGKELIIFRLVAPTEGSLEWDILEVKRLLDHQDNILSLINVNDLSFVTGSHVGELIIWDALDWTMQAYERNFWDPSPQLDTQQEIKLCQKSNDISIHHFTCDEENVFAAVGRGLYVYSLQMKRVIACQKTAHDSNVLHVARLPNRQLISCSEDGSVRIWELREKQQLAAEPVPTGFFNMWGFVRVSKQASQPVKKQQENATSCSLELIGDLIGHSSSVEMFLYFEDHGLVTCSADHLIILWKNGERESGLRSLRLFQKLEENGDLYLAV

B1: PQLC2-FLAG wild type (protein, UniProt Q6ZP29 1-291)
chain: MVWKKLGSRNFSSCPSGSIQWIWDVLGECAQDGWDEASVGLGLISILCFAASTFPQFIKAYKTGNMDQALSLWFLLGWIGGDSCNLIGSFLADQLPLQTYTAVYYVLADLVMLTLYFYYKFRTRPSLLSAPINSVLLFLMGMACATPLLSAAGPVAAPREAFRGRALLSVESGSKPFTRQEVIGFVIGSISSVLYLLSRLPQIRTNFLRKSTQGISYSLFALVMLGNTLYGLSVLLKNPEEGQSEGSYLLHHLPWLVGSLGVLLLDTIISIQFLVYRRSTAASELEPLLPS
B2: SMCR8 (protein, UniProt Q8TEV9 1-937)
chain: MISAPDVVAFTKEEEYEEEPYNEPALPEEYSVPLFPFASQGANPWSKLSGAKFSRDFILISEFSEQVGPQPLLTIPNDTKVFGTFDLNYFSLRIMSVDYQASFVGHPPGSAYPKLNFVEDSKVVLGDSKEGAFAYVHHLTLYDLEARGFVRPFCMAYISADQHKIMQQFQELSAEFSRASECLKTGNRKAFAGELEKKLKDLDYTRTVLHTETEIQKKANDKGFYSSQAIEKANELASVEKSIIEHQDLLKQIRSYPHRKLKGHDLCPGEMEHIQDQASQASTTSNPDESADTDLYTCRPAYTPKLIKAKSTKCFDKKLKTLEELCDTEYFTQTLAQLSHIEHMFRGDLCYLLTSQIDRALLKQQHITNFLFEDFVEVDDRMVEKQESIPSKPSQDRPPSSSLEECPIPKVLISVGSYKSSVESVLIKMEQELGDEEYKEVEVTELSSFDPQENLDYLDMDMKGSISSGESIEVLGTEKSTSVLSKSDSQASLTVPLSPQVVRSKAVSHRTISEDSIEVLSTCPSEALIPDDFKASYPSAINEEESYPDGNEGAIRFQASISPPELGETEEGSIENTPSQIDSSCCIGKESDGQLVLPSTPAHTHSDEDGVVSSPPQRHRQKDQGFRVDFSVENANPSSRDNSCEGFPAYELDPSHLLASRDISKTSLDNYSDTTSYVSSVASTSSDRIPSAYPAGLSSDRHKKRAGQNALKFIRQYPFAHPAIYSLLSGRTLVVLGEDEAIVRKLVTALAIFVPSYGCYAKPVKHWASSPLHIMDFQKWKLIGLQRVASPAGAGTLHALSRYSRYTSILDLDNKTLRCPLYRGTLVPRLADHRTQIKRGSTYYLHVQSMLTQLCSKAFLYTFCHHLHLPTHDKETEELVASRQMSFLKLTLGLVNEDVRVVQYLAELLKLHYMQESPGTSHPMLRFDYVPSFLYKI

How the values were obtained:
Assay in all cases: co-IP
[1] = target: T1, GFP fusion of WDR41 374-393 (linker)
[2] = target: T2, GFP fusion protein containing the WDR41 turn region (361-373)
[3] = target: T3, WDR41-HA G365A
[4] = target: T4, WDR41-HA wild type
[5] = target: T5, WDR41-HA with deletion of the second linker sub-region of the 7CD loop (374-393)
[6] = target: T6, WDR41-HA with glycine 371 substituted by valine
[7] = target: T7, WDR41-HA with glycine 373 substituted by valine

Binder	binding [1]	binding [2]	binding [3]	binding [4]	binding [5]	binding [6]	binding [7]
B1	no binding	binds	binds	binds	no binding	binds	binds
B2	no binding	no binding	binds	binds	binds	binds	binds
